In one test the target is HA-RAB2a (UniProt P53994). The test can be described thus: co-IP; co-expression in WT E14 mESCs for 48 hrs; IP with cross-linked anti-HA magnetic beads against mouse IgG control, over-night; WB with anti-FLAG and anti-HA.
The target of a further test is T1, STMN1-HA (mouse) (UniProt P54227).
T1 sequence: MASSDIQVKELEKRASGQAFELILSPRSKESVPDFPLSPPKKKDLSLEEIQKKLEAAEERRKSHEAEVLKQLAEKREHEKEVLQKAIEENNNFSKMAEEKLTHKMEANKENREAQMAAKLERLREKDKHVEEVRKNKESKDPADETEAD
Described as above.

Protein sequences, listed by entry. Tags and fused reporters are not part of them. Residues count along the entry.
UniProt P53994: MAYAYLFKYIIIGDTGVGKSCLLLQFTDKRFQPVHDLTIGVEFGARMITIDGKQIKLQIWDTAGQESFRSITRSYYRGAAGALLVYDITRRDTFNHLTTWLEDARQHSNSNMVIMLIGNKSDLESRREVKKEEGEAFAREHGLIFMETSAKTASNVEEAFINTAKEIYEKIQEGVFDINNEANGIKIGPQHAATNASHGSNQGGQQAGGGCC
UniProt Q9EPL4, residues 19-318: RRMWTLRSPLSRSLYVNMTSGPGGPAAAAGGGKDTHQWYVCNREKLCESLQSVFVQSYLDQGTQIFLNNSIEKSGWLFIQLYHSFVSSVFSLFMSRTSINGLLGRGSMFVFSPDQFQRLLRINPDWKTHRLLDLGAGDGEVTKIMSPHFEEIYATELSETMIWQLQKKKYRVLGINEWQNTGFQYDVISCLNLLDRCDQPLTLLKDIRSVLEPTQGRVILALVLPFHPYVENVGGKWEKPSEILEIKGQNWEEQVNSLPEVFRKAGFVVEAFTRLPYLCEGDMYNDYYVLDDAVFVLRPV

Results are given in words; binding and its absence hold for the method and conditions named. In cells and extracts the contact can be indirect. Some results given as binding are weak or reduced against the parent protein; the word gives no strength. For some assays here: Where a sequence is shown, tags or fusion partners need not be part of it.

Regarding “METTL9-FLAG (from UniProt Q9EPL4 19-318) (enzyme)”, the binding result with HA-RAB2a and with STMN1-HA (mouse) was “binds” in each case.
